# Test results taken from PubChem BioAssay AID1439 (NMMLSC, 2008).
# Amino acid sequences for entries named in this document (tags omitted).
# UniProt P09471, whole entry, looked up: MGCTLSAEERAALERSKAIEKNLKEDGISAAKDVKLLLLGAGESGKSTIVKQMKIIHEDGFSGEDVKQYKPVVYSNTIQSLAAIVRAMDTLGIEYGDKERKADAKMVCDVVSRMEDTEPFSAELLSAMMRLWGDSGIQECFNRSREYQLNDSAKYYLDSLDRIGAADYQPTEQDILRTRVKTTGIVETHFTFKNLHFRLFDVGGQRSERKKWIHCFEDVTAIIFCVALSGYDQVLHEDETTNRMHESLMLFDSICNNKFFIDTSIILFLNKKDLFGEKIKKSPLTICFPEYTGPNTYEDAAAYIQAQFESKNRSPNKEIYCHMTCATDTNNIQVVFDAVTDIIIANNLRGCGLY
# Hit rate of the full screen: of about 220,000 compounds, about 770 (0.35%) were called active. The shares of active, inactive and inconclusive entries below differ from those in the screen. Cut-off read from the data, not from the text of the source: active = binding response below about 49% or above about 150%; inconclusive = no clear call, values can overlap the other calls; inactive = in between.
# Target: Guanine nucleotide-binding protein G(o) subunit alpha (Homo sapiens) (UniProt P09471)
# Assay: RGS7-Galphao binding modulators, primary screen, biochemical, multiplexed bead flow cytometry (AID 1439);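 note: fluorescent Galphao held in activated GDP-AlF4 state binding bead-coupled RGS7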
# Conditions: at 10 µM, actives lie on both sides
row,Compound,binding response (% of control)
1,C=CCCCCCCCCC(=O)NNC1CC(=O)N(c2ccccc2)C1=O (stereo unspecified),inconclusive: 209%
2,Nc1n[nH]c(C2CC2)c1N=Nc1ccc(Cl)cc1,inconclusive: 91.2%
3,Cn1cnnc1SCC(=O)Nc1ccccc1F,inconclusive: 105%
4,Cc1ccc(NC(=O)c2ccccc2-c2ccccc2C(=O)O)cc1C,inconclusive: 151%
5,COc1ccc(Cn2nnnc2C(c2ccc(N(C)C)cc2)N2CCC(C(N)=O)CC2)cc1 (stereo unspecified),inactive: 102%
6,CCN(CC)S(=O)(=O)c1ccc(/C=C/C(=O)OCC(=O)Nc2ccc(C(N)=O)cc2)cc1,inconclusive: 88.5%
7,NCCOc1ccc(C23CC4CC(CC(C4)C2)C3)cc1,inconclusive: 95.5%
8,CN1CCN(C(=S)c2ccc(-c3cc(Cl)ccc3Cl)o2)CC1,inconclusive: 35.5%
9,CSc1ccccc1NC(=O)Cn1nc([N+](=O)[O-])cc1C,inconclusive: 90.9%
10,Cc1ccc(CNC(=O)c2cc(C)nn2-c2ccccc2)cc1,inconclusive: 143%
11,Nc1nc(COc2ccc(F)cc2Cl)nc(N2CCCCC2)n1,inactive: 100%
12,CCCCn1c(SCC(=O)c2ccc3c(c2)NC(=O)CO3)nc2cc(S(N)(=O)=O)ccc21,inconclusive: 98.9%
13,CCc1ccnc(NS(=O)(=O)c2ccc3c(c2)OCCO3)c1,inconclusive: 120%
14,CCC1(C)Cc2c(sc3nc(SC)[nH]c(=O)c23)CO1 (stereo unspecified),inconclusive: 130%
15,COc1ccc2c(CC(=O)Nc3ccccc3N3CCOCC3)coc2c1,inconclusive: 31.2%
16,Oc1ccc(N=Nc2ccc3c(c2)OCO3)c2ccccc12,inconclusive: 47.5%
17,O=C(Nc1ccc(S(=O)(=O)Nc2nccs2)cc1)c1cccc(S(=O)(=O)N2CCOCC2)c1,inconclusive: 115%
18,O=C(COc1ccccc1[N+](=O)[O-])N/N=C/c1ccc[nH]1,inconclusive: 197%
19,Nc1nc(Cl)cc(Nc2ccccc2Cl)n1,inconclusive: 110%
20,COc1ccc(/C=C/C(=O)NCC(c2ccc(F)cc2)N2CCOCC2)cc1OC (stereo unspecified),inconclusive: 106%
21,CC1CCCC(NC(=O)COC(=O)/C=C/c2ccc(S(=O)(=O)N3CCOCC3)cc2)C1C (stereo unspecified),inconclusive: 85.7%
22,O=C(N/N=C/c1ccccc1[N+](=O)[O-])c1ccc2c(c1)OCCO2,inconclusive: 105%
23,CNC(=S)N1N=C(c2ccc(Br)cc2)CC1c1ccc(N(C)C)cc1 (stereo unspecified),inconclusive: 92.8%

row,Compound,binding response (% of control)
1,COc1ccc(-n2cnc3scc(-c4ccccc4)c3c2=O)cc1,inactive: 107%
2,Cc1ccc(-c2nc(-c3ccccn3)no2)cc1[N+](=O)[O-],inconclusive: 117%
3,COc1ccc(N(C)S(=O)(=O)c2cccc(C(=O)OCC(=O)Nc3sc4c(c3C#N)CCCCC4)c2)cc1,inactive: 101%
4,O=C(O)c1ccc(N/N=C/c2ccc(-c3cccc(Cl)c3)o2)cc1,inconclusive: 104%
5,Cn1c(=O)c([N+](=O)[O-])c(N2CCSCC2)c2ccccc21,inconclusive: 110%
6,C(=N\Nc1nc2ccccc2[nH]1)/c1cccc2cccnc12,inconclusive: 175%
7,CCN(c1ccccc1)C1(O)C(=O)c2ccccc2C1=O,inactive: 102%
8,NC(=S)Nc1ncc(C(F)(F)F)cc1Cl,inconclusive: 82%
9,CCc1nc(CN2CCN(c3cc(C(F)(F)F)ccn3)CC2)c(C)[nH]1,inconclusive: 105%
10,CC1CCN(c2ccccc2N)CC1,active: 153% [activator]
11,Cc1cc(NC(=O)CSc2ncnc3sc(C)c(C)c23)no1,inconclusive: 94.2%
12,CCOCCn1c(CN2CCCC(C)C2)nc2c1c(=O)n(C)c(=O)n2C (stereo unspecified),inconclusive: 101%
13,O=C(N/N=C/c1cccc2cccnc12)[C@H]1C[C@@H]1c1ccccc1,inconclusive: 105%
14,O=C(CSc1ccc(Cl)cc1)N/N=C/c1cccnc1,inactive: 96.1%
15,CS(=O)(=O)N(CC(=O)Nc1ccc(F)c(F)c1)c1cccc([N+](=O)[O-])c1,inactive: 101%
16,Cc1cc(C)c(C#N)c(SCC(=O)C2CC2)n1,inconclusive: 78.5%
17,O=Cc1sc(N2CCOCC2)nc1-c1ccccc1,inactive: 101%
18,N#CCCN(Cc1cccnc1)C(=S)NC1CC2C=CC1C2 (stereo unspecified),inconclusive: 69.3%
19,CCN(CC)C(=O)CC(c1ccc(N(C)C)cc1)c1c(OC)cc(OC)c2ccc(=O)oc12 (stereo unspecified),inconclusive: 56.7%
20,Cc1nn(C(=O)c2nn(C)cc2[N+](=O)[O-])c(C)c1Br,inactive: 92.2%
21,Cn1c2ccccc2c2cnn(CC(=O)Nc3cccc(F)c3)c(=O)c21,inconclusive: 79.9%
22,CCN(CC)C(=O)CN1C(=O)c2cccc3cccc(c23)C1=O,inconclusive: 96.4%
23,O=C(Nc1ccc(-c2csnn2)cc1)C(Cl)(Cl)Cl,inconclusive: -55.4%

# Looked up above:
# Entry of CC1CCCC(NC(=O)COC(=O)/C=C/c2ccc(S(=O)(=O)N3CCOCC3)cc2)C1C (stereo unspecified) under binding response (% of control): inconclusive: 85.7%
# Entry of Cc1cc(C)c(C#N)c(SCC(=O)C2CC2)n1 under binding response (% of control): inconclusive: 78.5%

# Further results follow:

row,Compound,binding response (% of control)
1,COC(=O)c1[nH]c(C)c(/C(O)=C2\C(=O)C(=O)N(CCN3CCOCC3)C2c2ccco2)c1C (stereo unspecified),inconclusive: 113%
2,O=C(NNC(=O)C1CCCCC1)c1ccc(Br)cc1,inconclusive: 98.1%
3,COc1cc(C(F)(F)F)c(C(=O)N(C)c2ccc(Cl)cc2)cn1,inconclusive: 106%
4,CC(C)CNC(=S)NNC(=O)c1csc2c1CCC(C)C2 (stereo unspecified),inactive: 99.8%
5,CCOC(=O)c1c(NC(=O)COC(=O)c2ccccn2)sc2c1CCC2,inactive: 90.2%
6,Cc1cccc(OCC(=O)N(C)CCc2ccccn2)c1,inactive: 105%
7,Brc1ccccc1C1=Nn2c(nnc2-c2ccco2)SC1,inconclusive: 144%
8,CC1=CC(c2ccccc2)n2nc(NC(=O)CCC(=O)O)nc2N1 (stereo unspecified),inconclusive: 98.8%
9,C1=C(c2ccccc2)Nc2ccccc2N=C1c1ccccc1,inactive: 92.3%
10,Cc1cc(C)nc(NS(=O)(=O)c2ccc(NC(=O)Cn3c(=O)oc4ccccc43)cc2)n1,inactive: 101%
11,COc1ccc(C(=O)C2CCCN(Cc3cccn3-c3nccs3)C2)cc1OC (stereo unspecified),inconclusive: 243%
12,CC(C)(C)n1nnnc1C(c1ccc(F)cc1)N1CCC(C(N)=O)CC1 (stereo unspecified),inconclusive: 95.2%
13,CSCCC(NS(=O)(=O)c1ccc2c(c1)oc(=O)n2C)C(=O)NCc1ccccc1 (stereo unspecified),inconclusive: 111%
14,Cc1ccc(S(=O)(=O)CC(=O)Nc2ccc(F)c(F)c2F)cc1,inconclusive: 333%
15,CC1(C)SC(=S)N(/N=C/c2ccccc2O)C1N(O)C(=O)Nc1ccccc1 (stereo unspecified),inconclusive: 115%
16,COc1ccc(OCCSCc2nnc(NC(=O)Nc3ccc(Cl)cc3)s2)cc1,inactive: 97.4%
17,O=C(COc1ncnc2scc(-c3ccccc3)c12)NCCN1C(=O)CSC1=O,inconclusive: 91.3%
18,Cc1ccc(-c2c(C(=O)NCc3ccc(F)cc3)oc(=O)c3ccccc23)cc1,inactive: 102%
19,COc1ccccc1CNC(=O)C(NS(=O)(=O)c1ccc2c(c1)OCCO2)C(C)C (stereo unspecified),inactive: 87.5%
20,O=C(/C=C/c1ccccc1)NC(=S)Nc1ccc2c3c(cccc13)CC2,inactive: 113%
21,CC(C)(ONC(=O)Nc1ccccc1Cl)C(=O)O,inconclusive: 104%
22,Cc1cccc(-n2ncc3c(N4CCCC4)ncnc32)c1,inactive: 100%
23,Cn1c(=O)c2c(nc(N/N=C/c3cccnc3)n2Cc2ccc(F)cc2)n(C)c1=O,inconclusive: 74.1%

row,Compound,binding response (% of control)
1,S=C(NCCc1ccncc1)Nc1ccccc1,inconclusive: 101%
2,CC(C)c1ccc(NC(=O)NN2CCOCC2)cc1,inactive: 93.8%
3,Cc1ccccc1/C=N/N=C1/NC(=O)CCS1,inconclusive: 59.7%
4,Nn1nnc2ccccc21,inconclusive: 92.9%
5,Clc1ccc(CONc2ncnc3nonc23)c(Cl)c1,inactive: 110%
6,CN1CCN(C2=C(Cl)C(=O)C(c3cnc(N4CCCCC4)s3)=C(Cl)C2=O)CC1,inactive: 76.4%
7,COC(=O)c1cnc(SCc2ccc([N+](=O)[O-])cc2)n1C,inconclusive: 85.5%
8,O=C(O)COc1ccccc1/C=N/NC(=O)c1ccc(F)cc1,inconclusive: 89.7%
9,COc1ccccc1CCNC(=O)CSc1nnc2ccc(-c3cccnc3)nn12,inconclusive: 97.6%
10,Cc1ccc(S(=O)(=O)Nc2nc(-c3ccc(F)cc3)cs2)cc1,inconclusive: 32.9%
11,O=C(O)C1=C[C@H](c2cccs2)C[C@H](OCc2ccc(CO)cc2)O1,inconclusive: 92.4%
12,CCN(CC)CCC(c1ccc(N(C)C)cc1)c1c(OC)cc(OC)c2c(-c3ccccc3)cc(=O)oc12 (stereo unspecified),inconclusive: 91.7%
13,COc1ccc(OC)c(C(c2nnnn2C2CCCC2)N2CCN(c3ccc(F)cc3)CC2)c1 (stereo unspecified),inactive: 100%
14,S=c1[nH]nc(-c2cc(-c3ccccc3)n[nH]2)n1/N=C/c1ccc(Cl)cc1,inconclusive: 403%
15,COC(=O)c1cn(Cc2ccccn2)c(=O)c2ccccc12,inconclusive: 97.8%
16,CC(=O)c1cc(NC(=O)c2ccccc2)c(=O)oc1C,inconclusive: 109%
17,Cc1cc(N2CCN(C)CC2)nc2ccc(NC(=S)N3CCN(c4ccccn4)CC3)cc12,inconclusive: 103%
18,CC(=O)c1c(C)[nH]c(C(=O)CSc2nnc(-c3ccco3)o2)c1C,inconclusive: 95.1%
19,CCN(CC(=O)Nc1ccc(S(=O)(=O)N2CCCC2)cc1)CC(=O)Nc1cccc(OC)c1,inconclusive: 154%
20,CN1C[C@@H]2C(c3ccc(C(F)(F)F)cc3)C3(c4ccc(C#N)cc4)CC2(C3)[C@H]1c1ccccc1 (stereo partly specified),inconclusive: 112%
21,O=C(NCc1ccncc1)C(=O)Nc1nccs1,inconclusive: 73.6%
22,O=C(Nc1ccccc1Cl)Nc1ccccc1Cl,inconclusive: 35.7%

# Some of the entries so far, bar-delimited.
row | Compound | binding response (% of control)
12 | CCN(CC)CCC(c1ccc(N(C)C)cc1)c1c(OC)cc(OC)c2c(-c3ccccc3)cc(=O)oc12 (stereo unspecified) | inconclusive: 91.7%
13 | COc1ccc(OC)c(C(c2nnnn2C2CCCC2)N2CCN(c3ccc(F)cc3)CC2)c1 (stereo unspecified) | inactive: 100%
14 | S=c1[nH]nc(-c2cc(-c3ccccc3)n[nH]2)n1/N=C/c1ccc(Cl)cc1 | inconclusive: 403%
15 | COC(=O)c1cn(Cc2ccccn2)c(=O)c2ccccc12 | inconclusive: 97.8%
16 | CC(=O)c1cc(NC(=O)c2ccccc2)c(=O)oc1C | inconclusive: 109%
